Assay results from US20240182526A1 (University of Southern California, priority 2021, published 2024).
Where a sequence shows no end group, the ends are not given. Where no end group is shown, it is not given here. [ ]: non-standard residue; d: D form. pY = N[C@@H](Cc1ccc(OP(=O)(O)O)cc1)C(=O)O

Assay: peptide made by a vendor
Settings: whole synthesis

With PRQPYFKQNC as the substance, how does the “purity (crude or final not stated)” value read?
Its value is “purity>=85%”.

With PRQP[pY]FKQNC as the substance, how does the “purity (crude or final not stated)” value read?
Its value is “purity>=85%”.
